Assay results taken from patent US20100150948A1, “MATERIALS AND METHODS FOR IMPROVED IMMUNOGLYCOPROTEINS” (TRUBION PHARMACEUTICALS, INC., priority 2006, published 2010).

Tested on: CHO cells transfected with TRU-016
Test: Effect of castanospermine concentration on cell viability, density and specific protein production of TRU-016
Type: cell-based, Chinese hamster
Conditions: harvest day 8
Method: Prior to initiation of the experiments, CHO cells transfected with TRU-016 were grown in shake flasks in Ex-Cell™ 302 CHO serum-free media (SAFC Biosciences) supplemented with 1× non-essential amino acids (MediaTech), 1× sodium pyruvate (MediaTech), 4 mM L-glutamine (MediaTech), 500 nM methotrexate (MP Biomedicals) and 1 mg/L recombinant insulin (Recombulin—GIBCO/Invitrogen Corp.) at 37° C. and 5% carbon dioxide in a humidified incubator. A 200 mM stock concentration of castanospermine (Alexis Biochemicals) was prepared by dilution of the castanospermine in sterile, distilled/deionized water (MediaTech) and filtration through a 13 mm Acrodisc® with a 0.2 μm HT Tuffryn membrane (Pall Corporation). Stock solution was aliquoted into sterile, O-ringed, 0.5 mL microcentrifuge tubes (Fisherbrand, Fisher Scientific) and frozen at −20° C. Approximately 1 hour prior to initiation of experiments, needed aliquots were thawed at room temperature and the contents of each vial mixed well by vortexing.
For each experiment, cells in log phase growth were seeded in the above medium into a total volume of 60 mL in 250 mL shaker flasks at a density of 200,000 cells/mL and CS added at the concentration to be tested. Final CS concentrations of 800 μM, 400 μM, 200 μM, 100 μM, 50 μM, 25 μM and 0 μM were each tested in duplicate flasks. All cultures were incubated at 37° C. and 5% carbon dioxide in a humidified incubator and monitored at least every other day for viable cell density and overall cell viability.
Cultures were harvested on day 8 when overall cell viability was 50-70% (Expt. 1) and 30-50% (Expt. 2). Cells and cellular debris were removed by centrifugation in a Sorvall Super T21 at 3000 rpm for 20 minutes after which the supernatant was sterile filtered through a Millipore Steriflip unit with a 0.22 μm Millipore Express Plus membrane and stored at 2-8° C. until purification.

O[C@H]1[C@H](O)[C@@H](O)CN2CC[C@H](O)[C@H]12 [castanospermine]
Average TRU-016 Produced (ug/mL) ± SD (CS 25 μM): 180.31 ± 6.6 µg/mL
Average TRU-016 Produced (ug/mL) ± SD (CS 50 μM): 176.63 ± 1.0 µg/mL
Average TRU-016 Produced (ug/mL) ± SD (CS 100 μM): 161.83 ± 0.1 µg/mL
Average TRU-016 Produced (ug/mL) ± SD (CS 200 μM): 143.53 ± 1.4 µg/mL
Average TRU-016 Produced (ug/mL) ± SD (CS 400 μM): 124.93 ± 1.4 µg/mL
Average TRU-016 Produced (ug/mL) ± SD (CS 800 μM): 99.65 ± 6.1 µg/mL
